Experimental data taken from patent US6528303.
No constants are given. Whether binding was seen depends on the method and setting. Some results given as binding are weak or reduced against the parent protein; the word gives no strength.

Target: T1, rat NPY-Y5 receptor (rat) (UniProt Q63634)
T1 sequence: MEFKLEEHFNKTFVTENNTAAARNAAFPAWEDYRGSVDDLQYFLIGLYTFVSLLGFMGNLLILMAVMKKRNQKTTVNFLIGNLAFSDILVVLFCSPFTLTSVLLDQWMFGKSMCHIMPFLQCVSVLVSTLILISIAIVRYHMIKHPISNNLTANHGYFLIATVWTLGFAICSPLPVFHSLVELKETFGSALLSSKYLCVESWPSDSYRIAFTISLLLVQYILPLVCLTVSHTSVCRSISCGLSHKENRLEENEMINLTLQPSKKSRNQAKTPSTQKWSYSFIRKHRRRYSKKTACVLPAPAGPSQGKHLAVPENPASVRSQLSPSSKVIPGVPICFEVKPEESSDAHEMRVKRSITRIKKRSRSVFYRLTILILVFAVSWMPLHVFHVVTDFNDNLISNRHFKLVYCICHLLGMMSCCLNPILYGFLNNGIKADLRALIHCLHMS
Test: NPY binding analysis of CHO cell lines stably expressing the rat Y5 receptor

binding: binds
B1: PP (peptide, UniProt P01298 30-65, looked up)
peptide: APLEPVYPGDNATPEQMAQYAADLRRYINMLTRPRY
